No constants are given. Whether binding was seen depends on the method and setting. In cells and extracts the contact can be indirect. Some entries that bind do so weakly or less than the wild type.
Biological target: Smad3 (bovine (endogenous in liver tissue of dairy cows)) (UniProt F1MUZ3)
Experiment: co-IP; endogenous proteins; lysates of bovine normal liver tissue incubated with the antibody at 4°C overnight, then protein A/G plus agarose beads for 4 h; immunoblotting; IgG as negative control

Chains of the proteins cited; added tags and fusions are not shown.
UniProt F1MUZ3: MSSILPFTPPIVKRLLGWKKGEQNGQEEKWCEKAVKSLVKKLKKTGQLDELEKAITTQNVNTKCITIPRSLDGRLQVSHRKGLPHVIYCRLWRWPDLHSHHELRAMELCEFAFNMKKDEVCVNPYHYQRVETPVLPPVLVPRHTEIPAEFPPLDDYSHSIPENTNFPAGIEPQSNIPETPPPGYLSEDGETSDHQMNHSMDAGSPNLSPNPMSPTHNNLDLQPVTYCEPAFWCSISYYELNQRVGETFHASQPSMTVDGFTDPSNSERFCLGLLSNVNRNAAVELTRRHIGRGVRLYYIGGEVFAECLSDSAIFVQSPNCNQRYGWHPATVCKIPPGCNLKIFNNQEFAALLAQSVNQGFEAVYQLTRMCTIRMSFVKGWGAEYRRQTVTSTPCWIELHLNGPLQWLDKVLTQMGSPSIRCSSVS

B1: Ufm1 binding protein 1 (Ufbp1) (protein, UniProt Q1LZB0 1-313)
chain: MVSPVVYLVVAALLVGLILFLTRGRGRAAAAAQEPLHNEEVPAAAGRVARPQPLEPEEQRAAGRPRRRRDLGSRLQAQRRAQRVAWADENEEEAIIQAQEEEDIEKPVETHLSGKIGAKKLRKLEEKQARKAQREAEEAEREERKRLESQREAEWKKEEERLRLEEEQKEEEERKAQEEQAQREHEEYLKLKETFVVVEEGVGETMTEEQSHSFLAEFINYIKQSKVVLLEDLASQVGLRTQDTINRIQDLLAEGTLTGVIDDRGKFIYITPEELAAVANFIRQRGRVSITELAQASNSLIAWGRETPAQAPA
- binding: binds

Reference: article PMC8297976
